# Assay results as given in PMC11005723, “Development of Complementary Photo‐arginine/lysine to Promote Discovery of Arg/Lys hPTMs Interactomes” (Advanced Science, 2024).
# The source gives many values for each of these; only a part stands here.
# Test system: HEK293T nuclear lysates
# Assay: SILAC‐based pull‐down proteomics H4K5me2/H4K5 (probes 7/5)
# Assay type: binding, human
# Details: for E6 log2 (H4K5me2/H4K5): run E6; for F6 log2 (H4K5me2/H4K5): run F6
# [1] = enriched protein ABCF1 (Q8NE71)
# [2] = enriched protein AHCYL1 (O43865)
# [3] = enriched protein ALDH18A1 (P54886)
# [4] = enriched protein ALDOA (P04075)
# [5] = enriched protein APEX1 (P27695)
# [6] = enriched protein ATF7IP (Q6VMQ6)
# [7] = enriched protein CCT6A (P40227)
# [8] = enriched protein CELF1 (Q92879)
# [9] = enriched protein CORO1B (Q9BR76)
# [10] = enriched protein CSRP2 (Q16527)
# [11] = enriched protein CSTF1 (Q05048)
# [12] = enriched protein CSTF2 (E9PID8)
# [13] = enriched protein DAZAP1 (K7EQ02)
# [14] = enriched protein DDX1 (A0A087X2G1)
# [15] = enriched protein DDX3X (A0A2R8Y5G6)
# [16] = enriched protein DDX39A (O00148)
# [17] = enriched protein DDX46 (A0A0C4DG89)
# [18] = enriched protein DHX15 (O43143)
# [19] = enriched protein EHMT2 (B0UZY3)
# [20] = enriched protein EIF4A3 (P38919)
# [21] = enriched protein EXOSC10 (Q01780)
# [22] = enriched protein FAM120B (Q96EK7)
# [23] = enriched protein FLNA (A0A087WWY3)
# [24] = enriched protein FSCN1 (Q16658)
# [25] = enriched protein FUBP1 (Q96AE4)
# [26] = enriched protein GABPA (Q06546)
# [27] = enriched protein GAPDH (E7EUT5)
# [28] = enriched protein GNB2L1 (P63244)
# [29] = enriched protein HNRNPA1 (F8VRQ1)
# [30] = enriched protein HNRNPD (Q14103)
# [31] = enriched protein HSPA9 (P38646)
# [32] = enriched protein ILKAP (Q9H0C8)
# [33] = enriched protein L3MBTL2 (Q969R5)
# [34] = enriched protein LIMS1 (P48059)
# [35] = enriched protein LRWD1 (Q9UFC0)
# [36] = enriched protein MBTD1 (Q05BQ5)
substance,measurement,setting,value
probe 7: H4K5me2 peptide probe with photo‐arginine R(dz) and K(biotin) (SGRGKGGKGLGKGGK; photo-arginine R(dz) at 3; dimethyl-lysine at 5; K(biotin) at 15),E6 log2 (H4K5me2/H4K5),[1],0.5648
same,F6 log2 (H4K5me2/H4K5),[1],-0.2191
same,E6 log2 (H4K5me2/H4K5),enriched protein ADD1 (E7EV99),1.022
same,F6 log2 (H4K5me2/H4K5),enriched protein ADD1 (E7EV99),0.7863
same,E6 log2 (H4K5me2/H4K5),[2],1.535
same,F6 log2 (H4K5me2/H4K5),[2],-0.3157
same,E6 log2 (H4K5me2/H4K5),[3],0.4958
same,F6 log2 (H4K5me2/H4K5),[3],0.07847
same,E6 log2 (H4K5me2/H4K5),[4],0.6232
same,F6 log2 (H4K5me2/H4K5),[4],0.6108
same,E6 log2 (H4K5me2/H4K5),[5],0.5368
same,F6 log2 (H4K5me2/H4K5),[5],0.4869
same,E6 log2 (H4K5me2/H4K5),[6],1.496
same,F6 log2 (H4K5me2/H4K5),[6],-0.04952
same,E6 log2 (H4K5me2/H4K5),enriched protein CBX1 (P83916),3.0479
same,F6 log2 (H4K5me2/H4K5),enriched protein CBX1 (P83916),2.61
same,E6 log2 (H4K5me2/H4K5),enriched protein CBX3 (Q13185),1.7014
same,F6 log2 (H4K5me2/H4K5),enriched protein CBX3 (Q13185),1.82
same,E6 log2 (H4K5me2/H4K5),enriched protein CBX5 (P45973),0.9439
same,F6 log2 (H4K5me2/H4K5),enriched protein CBX5 (P45973),1.155
same,E6 log2 (H4K5me2/H4K5),[7],0.6351
same,F6 log2 (H4K5me2/H4K5),[7],0.5411
same,E6 log2 (H4K5me2/H4K5),[8],0.6093
same,F6 log2 (H4K5me2/H4K5),[8],0.3612
same,E6 log2 (H4K5me2/H4K5),enriched protein CNBP (P62633),0.7384
same,F6 log2 (H4K5me2/H4K5),enriched protein CNBP (P62633),0.485
same,E6 log2 (H4K5me2/H4K5),[9],0.5137
same,F6 log2 (H4K5me2/H4K5),[9],0.2992
same,E6 log2 (H4K5me2/H4K5),enriched protein CSK (P41240),0.6969
same,F6 log2 (H4K5me2/H4K5),enriched protein CSK (P41240),-0.06659
same,E6 log2 (H4K5me2/H4K5),[10],1.263
same,F6 log2 (H4K5me2/H4K5),[10],0.771
same,E6 log2 (H4K5me2/H4K5),[11],0.8653
same,F6 log2 (H4K5me2/H4K5),[11],0.6447
same,E6 log2 (H4K5me2/H4K5),[12],0.7798
same,F6 log2 (H4K5me2/H4K5),[12],0.3906
same,E6 log2 (H4K5me2/H4K5),enriched protein CUL3 (Q13618),0.4204
same,F6 log2 (H4K5me2/H4K5),enriched protein CUL3 (Q13618),0.1959
same,E6 log2 (H4K5me2/H4K5),enriched protein CYCS (C9JFR7),0.793
same,F6 log2 (H4K5me2/H4K5),enriched protein CYCS (C9JFR7),0.7226
same,E6 log2 (H4K5me2/H4K5),[13],0.8675
same,F6 log2 (H4K5me2/H4K5),[13],1.092
same,E6 log2 (H4K5me2/H4K5),[14],0.7443
same,F6 log2 (H4K5me2/H4K5),[14],0.8493
same,E6 log2 (H4K5me2/H4K5),[15],0.8699
same,F6 log2 (H4K5me2/H4K5),[15],0.1194
same,E6 log2 (H4K5me2/H4K5),enriched protein DDX5 (J3KTA4),0.5003
same,F6 log2 (H4K5me2/H4K5),enriched protein DDX5 (J3KTA4),0.5059
same,E6 log2 (H4K5me2/H4K5),[16],0.482
same,F6 log2 (H4K5me2/H4K5),[16],0.5893
same,E6 log2 (H4K5me2/H4K5),[17],0.6833
same,F6 log2 (H4K5me2/H4K5),[17],0.6003
same,E6 log2 (H4K5me2/H4K5),[18],0.4402
same,F6 log2 (H4K5me2/H4K5),[18],0.4387
same,E6 log2 (H4K5me2/H4K5),enriched protein DIS3 (Q9Y2L1),0.4109
same,F6 log2 (H4K5me2/H4K5),enriched protein DIS3 (Q9Y2L1),0.3569
same,E6 log2 (H4K5me2/H4K5),[19],0.4681
same,F6 log2 (H4K5me2/H4K5),[19],0.2418
same,E6 log2 (H4K5me2/H4K5),[20],0.8737
same,F6 log2 (H4K5me2/H4K5),[20],0.5817
same,E6 log2 (H4K5me2/H4K5),enriched protein ENO1 (P06733),0.528
same,F6 log2 (H4K5me2/H4K5),enriched protein ENO1 (P06733),0.4207
same,E6 log2 (H4K5me2/H4K5),[21],0.5551
same,F6 log2 (H4K5me2/H4K5),[21],-0.002284
same,E6 log2 (H4K5me2/H4K5),[22],1.788
same,F6 log2 (H4K5me2/H4K5),[22],0.0239
same,E6 log2 (H4K5me2/H4K5),enriched protein FHL1 (Q5JXI8),0.7221
same,F6 log2 (H4K5me2/H4K5),enriched protein FHL1 (Q5JXI8),0.5443
same,E6 log2 (H4K5me2/H4K5),[23],0.4728
same,F6 log2 (H4K5me2/H4K5),[23],0.5364
same,E6 log2 (H4K5me2/H4K5),[24],1.428
same,F6 log2 (H4K5me2/H4K5),[24],0.715
same,E6 log2 (H4K5me2/H4K5),[25],0.6224
same,F6 log2 (H4K5me2/H4K5),[25],0.5295
same,E6 log2 (H4K5me2/H4K5),enriched protein FUS (P35637),0.4011
same,F6 log2 (H4K5me2/H4K5),enriched protein FUS (P35637),0.4725
same,E6 log2 (H4K5me2/H4K5),[26],0.6937
same,F6 log2 (H4K5me2/H4K5),[26],0.2833
same,E6 log2 (H4K5me2/H4K5),[27],0.4479
same,F6 log2 (H4K5me2/H4K5),[27],0.4342
same,E6 log2 (H4K5me2/H4K5),enriched protein GDI2 (P50395),0.6366
same,F6 log2 (H4K5me2/H4K5),enriched protein GDI2 (P50395),0.1649
same,E6 log2 (H4K5me2/H4K5),[28],0.611
same,F6 log2 (H4K5me2/H4K5),[28],0.701
same,E6 log2 (H4K5me2/H4K5),[29],0.4124
same,F6 log2 (H4K5me2/H4K5),[29],0.316
same,E6 log2 (H4K5me2/H4K5),[30],0.5489
same,F6 log2 (H4K5me2/H4K5),[30],0.4363
same,E6 log2 (H4K5me2/H4K5),[31],0.6734
same,F6 log2 (H4K5me2/H4K5),[31],0.7184
same,E6 log2 (H4K5me2/H4K5),[32],0.7238
same,F6 log2 (H4K5me2/H4K5),[32],0.434
same,E6 log2 (H4K5me2/H4K5),enriched protein IPO4 (Q8TEX9),0.5564
same,F6 log2 (H4K5me2/H4K5),enriched protein IPO4 (Q8TEX9),0.1492
same,E6 log2 (H4K5me2/H4K5),[33],3.755
same,F6 log2 (H4K5me2/H4K5),[33],2.747
same,E6 log2 (H4K5me2/H4K5),enriched protein LBR (Q14739),0.5192
same,F6 log2 (H4K5me2/H4K5),enriched protein LBR (Q14739),0.1873
same,E6 log2 (H4K5me2/H4K5),enriched protein LDHA (P00338),0.6185
same,F6 log2 (H4K5me2/H4K5),enriched protein LDHA (P00338),0.5762
same,E6 log2 (H4K5me2/H4K5),[34],0.65
same,F6 log2 (H4K5me2/H4K5),[34],0.1802
same,E6 log2 (H4K5me2/H4K5),[35],0.5163
same,F6 log2 (H4K5me2/H4K5),[35],0.6122
same,E6 log2 (H4K5me2/H4K5),[36],0.5559
same,F6 log2 (H4K5me2/H4K5),[36],0.7084
same,E6 log2 (H4K5me2/H4K5),enriched protein MCM5 (P33992),0.4259
same,F6 log2 (H4K5me2/H4K5),enriched protein MCM5 (P33992),0.4016
same,E6 log2 (H4K5me2/H4K5),enriched protein MDH2 (P40926),0.6003
same,F6 log2 (H4K5me2/H4K5),enriched protein MDH2 (P40926),0.5962
same,E6 log2 (H4K5me2/H4K5),enriched protein MIF (P14174),0.4968
